Data as given in US10640544B2, “Antibody-coupled cyclic peptide tyrosine tyrosine compounds as modulators of neuropeptide Y receptors” (JANSSEN PHARMACEUTICA NV, priority 2016, dated 2020).
At least one compound was matched to its structure with a doubt left.

Experiment: Weight loss in diet-induced obese mice in combination with liraglutide: chronic dosing
Assay type: in vivo, mouse
Conditions: DIO mice; for daily food intake: liraglutide 10.0 nmol/kg s.c. every day
[1] = after 9 days treatment, 5 h fast, liraglutide 10.0 nmol/kg daily

Work on CCCCCCCCCCCCCCCC(=O)N[C@@H](CCC(=O)NCCCC[C@H](NC(=O)[C@H](C)NC(=O)[C@H](C)NC(=O)[C@H](CCC(N)=O)NC(=O)CNC(=O)[C@H](CCC(=O)O)NC(=O)[C@H](CC(C)C)NC(=O)[C@H](Cc1ccc(O)cc1)NC(=O)[C@H](CO)NC(=O)[C@H](CO)NC(=O)[C@@H](NC(=O)[C@H](CC(=O)O)NC(=O)[C@H](CO)NC(=O)[C@@H](NC(=O)[C@H](Cc1ccccc1)NC(=O)[C@@H](NC(=O)CNC(=O)[C@H](CCC(=O)O)NC(=O)[C@H](C)NC(=O)[C@@H](N)Cc1cnc[nH]1)[C@@H](C)O)[C@@H](C)O)C(C)C)C(=O)N[C@@H](CCC(=O)O)C(=O)N[C@@H](Cc1ccccc1)C(=O)N[C@H](C(=O)N[C@@H](C)C(=O)N[C@@H](Cc1c[nH]c2ccccc12)C(=O)N[C@@H](CC(C)C)C(=O)N[C@H](C(=O)N[C@@H](CCCNC(=N)N)C(=O)NCC(=O)N[C@@H](CCCNC(=N)N)C(=O)NCC(=O)O)C(C)C)[C@@H](C)CC)C(=O)O [Liraglutide] yielded a Fasting blood glucose [1] of 124.1 ± 4.9 mg/dL, a Fasting insulin [1] of 3.9 ± 0.6 ng/mL and a Fed blood glucose (after 9 days treatment, liraglutide 10.0 nmol/kg daily) of 112.5 ± 4.3 mg/dL. It also gave a daily food intake (Day 0) of 2.4 ± 0.1 g, a daily food intake (Day 1) of 1.1 ± 0.1 g and a daily food intake (Day 2) of 1.1 ± 0.1 g. It also gave a daily food intake (Day 3) of 1.5 ± 0.2 g, a daily food intake (Day 4) of 1.9 ± 0.2 g and a daily food intake (Day 5) of 1.9 ± 0.1 g. For the same compound, the daily food intake (Day 6) was 2.2 ± 0.1 g, the daily food intake (Day 7) was 2.3 ± 0.1 g and the daily food intake (Day 8) was 1.8 ± 0.1 g. For the same compound, the daily food intake (Day 9) was 1.7 ± 0.1 g.
